# The other results are listed elsewhere or left out.
# Assays:
# Assay in all cases: glycan array binding signal (z-score within array); higher = stronger binding
# Conditions in all cases: glycan notation: IUPAC condensed, linker removed
# [1] = biological target: GlcNAc(b1-3)Gal(b1-4)GlcNAc(b1-3)Gal(b1-4)GlcNAc(b1-3)GalNAc
# Procedure, shortened: (§1)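 Arrays were curated from the Consortium for Functional Glycomics database, 3228 in total, and kept only where the protein sequence was available. Binding is expressed as a within-array Z-score. This score was averaged across arrays of the same protein sequence at different concentrations or buffers and across linkers, and negative values can be read as non-binding.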
# [2] = biological target: GlcNAc(b1-3)Gal(b1-4)GlcNAc(b1-3)GalNAc
# Procedure, shortened: as §1
# [3] = biological target: GlcNAc(b1-3)Gal(b1-4)GlcNAc(b1-3)[GlcNAc(b1-3)Gal(b1-4)GlcNAc(b1-3)]GalNAc
# Procedure, shortened: as §1
# [4] = biological target: GlcNAc(b1-3)Gal(b1-4)GlcNAc(b1-6)[Gal(b1-3)]GalNAc
# Procedure, shortened: as §1
# [5] = biological target: GlcNAc(b1-3)Gal(b1-4)GlcNAc(b1-6)[GlcNAc(b1-3)Gal(b1-3)]GalNAc
# Procedure, shortened: as §1
# [6] = biological target: GlcNAc(b1-3)Gal(b1-4)GlcNAc(b1-6)[GlcNAc(b1-3)]Gal(b1-4)GlcNAc
# Procedure, shortened: as §1
# [7] = biological target: GlcNAc(b1-3)GalNAc
# Procedure, shortened: as §1
# [8] = biological target: GlcNAc(b1-3)Man
# Procedure, shortened: as §1
# [9] = biological target: GlcNAc(b1-3)[GlcNAc(b1-4)][GlcNAc(b1-6)]GlcNAc
# Procedure, shortened: as §1
# [10] = biological target: GlcNAc(b1-3)[GlcNAc(b1-6)]Gal(b1-4)GlcNAc
# Procedure, shortened: as §1
# [11] = biological target: GlcNAc(b1-3)[GlcNAc(b1-6)]GalNAc
# Procedure, shortened: as §1
# [12] = biological target: GlcNAc(b1-4)Gal(b1-4)GlcNAc
# Procedure, shortened: as §1
# [13] = biological target: GlcNAc(b1-4)GlcNAc
# Procedure, shortened: as §1
# [14] = biological target: GlcNAc(b1-4)GlcNAc(b1-4)GlcNAc
# Procedure, shortened: as §1
# [15] = biological target: GlcNAc(b1-4)GlcNAc(b1-4)GlcNAc(b1-4)GlcNAc(b1-4)GlcNAc
# Procedure, shortened: as §1
# [16] = biological target: GlcNAc(b1-4)GlcNAc(b1-4)GlcNAc(b1-4)GlcNAc(b1-4)GlcNAc(b1-4)GlcNAc
# Procedure, shortened: as §1
# [17] = biological target: GlcNAc(b1-4)[GlcNAc(b1-6)]GalNAc
# Procedure, shortened: as §1
# [18] = biological target: GlcNAc(b1-6)Gal(b1-4)GlcNAc
# Procedure, shortened: as §1
# [19] = biological target: GlcNAc(b1-6)GalNAc
# Procedure, shortened: as §1
# [20] = biological target: GlcNAc6S(b1-3)Gal(b1-4)GlcNAc
# Procedure, shortened: as §1
# [21] = biological target: Kdn(a2-3)Gal(b1-3)GalNAc
# Procedure, shortened: as §1
# [22] = biological target: Kdn(a2-3)Gal(b1-3)GlcNAc
# Procedure, shortened: as §1
# [23] = biological target: Kdn(a2-3)Gal(b1-4)Glc
# Procedure, shortened: as §1
# [24] = biological target: Kdn(a2-3)Gal(b1-4)GlcNAc
# Procedure, shortened: as §1
# [25] = biological target: Kdn(a2-3)Gal(b1-4)[Fuc(a1-3)]GlcNAc
# Procedure, shortened: as §1
# [26] = biological target: Kdn(a2-6)Gal(b1-4)GlcNAc
# Procedure, shortened: as §1
# [27] = biological target: Man(a1-2)Man(a1-2)Man(a1-3)Man
# Procedure, shortened: as §1
# [28] = biological target: Man(a1-2)Man(a1-2)Man(a1-6)[Man(a1-3)]Man
# Procedure, shortened: as §1
# [29] = biological target: Man(a1-2)Man(a1-3)Man
# Procedure, shortened: as §1
# [30] = biological target: Man(a1-2)Man(a1-3)[Man(a1-2)Man(a1-6)]Man
# Procedure, shortened: as §1
# [31] = biological target: Man(a1-2)Man(a1-3)[Man(a1-2)Man(a1-6)]Man(a1-6)[Man(a1-2)Man(a1-2)Man(a1-3)]Man
# Procedure, shortened: as §1
# [32] = biological target: Man(a1-2)Man(a1-3)[Man(a1-2)Man(a1-6)]Man(a1-6)[Man(a1-2)Man(a1-2)Man(a1-3)]Man(b1-4)GlcNAc(b1-4)GlcNAc
# Procedure, shortened: as §1
# [33] = biological target: Man(a1-2)Man(a1-3)[Man(a1-6)]Man(a1-6)[Man(a1-2)Man(a1-3)]Man(b1-4)GlcNAc(b1-4)GlcNAc
# Procedure, shortened: as §1
# [34] = biological target: Man(a1-2)Man(a1-6)[Man(a1-3)]Man(a1-6)[Man(a1-2)Man(a1-2)Man(a1-3)]Man
# Procedure, shortened: as §1
# [35] = biological target: Man(a1-2)Man(a1-6)[Man(a1-3)]Man(a1-6)[Man(a1-2)Man(a1-2)Man(a1-3)]Man(b1-4)GlcNAc(b1-4)GlcNAc
# Procedure, shortened: as §1
# [36] = biological target: Man(a1-3)[Man(a1-6)]Man
# Procedure, shortened: as §1
# [37] = biological target: Man(a1-3)[Man(a1-6)]Man(a1-6)[Man(a1-2)Man(a1-3)]Man(b1-4)GlcNAc(b1-4)GlcNAc
# Procedure, shortened: as §1
# [38] = biological target: Man(a1-3)[Man(a1-6)]Man(a1-6)[Man(a1-3)]Man
# Procedure, shortened: as §1
# [39] = biological target: Man(a1-3)[Man(a1-6)]Man(a1-6)[Man(a1-3)]Man(b1-4)GlcNAc(b1-4)GlcNAc
# Procedure, shortened: as §1
# [40] = biological target: Man(a1-3)[Man(a1-6)]Man(b1-4)GlcNAc(b1-4)GlcNAc
# Procedure, shortened: as §1
# [41] = biological target: Man(a1-3)[Man(a1-6)]Man(b1-4)GlcNAc(b1-4)[Fuc(a1-6)]GlcNAc
# Procedure, shortened: as §1
# [42] = biological target: Man(a1-6)Man
# Procedure, shortened: as §1
# [43] = biological target: Man(b1-4)GlcNAc
# Procedure, shortened: as §1
# [44] = biological target: MurNAc(b1-4)GlcNAc
# Procedure, shortened: as §1
# [45] = biological target: Neu5Ac(a2-3)Gal
# Procedure, shortened: as §1
# [46] = biological target: Neu5Ac(a2-3)Gal(b1-3)GalNAc
# Procedure, shortened: as §1
# [47] = biological target: Neu5Ac(a2-3)Gal(b1-3)GalNAc(b1-3)Gal(a1-4)Gal(b1-4)Glc
# Procedure, shortened: as §1
# [48] = biological target: Neu5Ac(a2-3)Gal(b1-3)GalNAc(b1-4)[Neu5Ac(a2-3)]Gal(b1-4)Glc
# Procedure, shortened: as §1
# [49] = biological target: Neu5Ac(a2-3)Gal(b1-3)GalNAc(b1-4)[Neu5Ac(a2-8)Neu5Ac(a2-3)]Gal(b1-4)Glc
# Procedure, shortened: as §1
# [50] = biological target: Neu5Ac(a2-3)Gal(b1-3)GalNAc6S
# Procedure, shortened: as §1
# [51] = biological target: Neu5Ac(a2-3)Gal(b1-3)GlcNAc
# Procedure, shortened: as §1
# [52] = biological target: Neu5Ac(a2-3)Gal(b1-3)GlcNAc(b1-2)Man
# Procedure, shortened: as §1
# [53] = biological target: Neu5Ac(a2-3)Gal(b1-3)GlcNAc(b1-2)Man(a1-3)[GlcNAc(b1-4)][Neu5Ac(a2-3)Gal(b1-3)GlcNAc(b1-2)Man(a1-6)]Man(b1-4)GlcNAc(b1-4)GlcNAc
# Procedure, shortened: as §1
# [54] = biological target: Neu5Ac(a2-3)Gal(b1-3)GlcNAc(b1-2)Man(a1-3)[Neu5Ac(a2-3)Gal(b1-3)GlcNAc(b1-2)Man(a1-6)]Man(b1-4)GlcNAc(b1-4)GlcNAc
# Procedure, shortened: as §1
# [55] = biological target: Neu5Ac(a2-3)Gal(b1-3)GlcNAc(b1-3)Gal(b1-3)GlcNAc
# Procedure, shortened: as §1
# [56] = biological target: Neu5Ac(a2-3)Gal(b1-3)GlcNAc(b1-3)Gal(b1-4)GlcNAc
# Procedure, shortened: as §1
# [57] = biological target: Neu5Ac(a2-3)Gal(b1-3)GlcNAc(b1-3)GalNAc
# Procedure, shortened: as §1
# [58] = biological target: Neu5Ac(a2-3)Gal(b1-3)GlcNAc(b1-4)Gal(b1-4)Glc
# Procedure, shortened: as §1
# [59] = biological target: Neu5Ac(a2-3)Gal(b1-3)GlcNAc(b1-6)GalNAc
# Procedure, shortened: as §1
# [60] = biological target: Neu5Ac(a2-3)Gal(b1-3)GlcNAc6S
# Procedure, shortened: as §1
binder,measurement,setting,value
PX14343F-bfa-562-20-562 (Bacteroides fragilis) (protein) CDDFLDSFPQDTVTNENFWKSKEDADKVLVDIYASLLPKDAIFFDEAMSDNAYLVWDWWGGAQQVANGSYTTSGEIPTNRWNGSYEVIRKCWFLLEGIEKIEDISEQDKNKIIGETYFMLAYNYYVLTSYFGDVPLVTKTLAIPESKQLVRTPKAEVVDYAINKLKEAAVMLEGLSQEKGRVTADACRFLIARMYLYNGDYSNVLETVKLLEGKYQLYREGDTPYEDLFSGVAENSCEVILSVVCDKRVGEIYTSHGGNGIMLLKGITGEDPYRGVTPSGSLVDAYPMADGRLIHEAGSSYDPKKPYEGRDPRFYQSIVYPTGQIKYLDVETGTVKERLYDPEDPTTVPEHQYNYSQPSATGYMWNKYIDYSVYAMNSVWDCTNDIIVFRYADVLLMKAEALLQTKGESAKEEVCNLIDQLRDRCSCGRVHRENYNSKDELMELLKNERRIELANEGLRYMDLIRWKDAEKNTIVTGVGLTGQMYGAYMRKDGVGKDDKTVDVDNTPRRYIETRYFNASKGYLFPIPQKERDLNPNLTQNPNW,glycan array binding signal (z-score),[1],-0.967
same,glycan array binding signal (z-score),[2],0.486
same,glycan array binding signal (z-score),[3],-0.273
same,glycan array binding signal (z-score),[4],-0.368
same,glycan array binding signal (z-score),[5],-0.237
same,glycan array binding signal (z-score),[6],-0.621
same,glycan array binding signal (z-score),[7],-0.59
same,glycan array binding signal (z-score),[8],0.528
same,glycan array binding signal (z-score),[9],0.065
same,glycan array binding signal (z-score),[10],-0.149
same,glycan array binding signal (z-score),[11],-0.401
same,glycan array binding signal (z-score),[12],-0.306
same,glycan array binding signal (z-score),[13],-0.708
same,glycan array binding signal (z-score),[14],0.054
same,glycan array binding signal (z-score),[15],-0.37
same,glycan array binding signal (z-score),[16],-0.538
same,glycan array binding signal (z-score),[17],0.005
same,glycan array binding signal (z-score),[18],-0.277
same,glycan array binding signal (z-score),[19],-0.589
same,glycan array binding signal (z-score),[20],0.136
same,glycan array binding signal (z-score),[21],0.066
same,glycan array binding signal (z-score),[22],0.344
same,glycan array binding signal (z-score),[23],-0.016
same,glycan array binding signal (z-score),[24],0.631
same,glycan array binding signal (z-score),[25],-0.468
same,glycan array binding signal (z-score),[26],1.1
same,glycan array binding signal (z-score),[27],-0.59
same,glycan array binding signal (z-score),[28],0.148
same,glycan array binding signal (z-score),[29],-0.87
same,glycan array binding signal (z-score),[30],-0.728
same,glycan array binding signal (z-score),[31],0.617
same,glycan array binding signal (z-score),[32],-0.697
same,glycan array binding signal (z-score),[33],-0.122
same,glycan array binding signal (z-score),[34],-0.323
same,glycan array binding signal (z-score),[35],-0.609
same,glycan array binding signal (z-score),[36],0.832
same,glycan array binding signal (z-score),[37],0.079
same,glycan array binding signal (z-score),[38],0.119
same,glycan array binding signal (z-score),[39],1.02
same,glycan array binding signal (z-score),[40],-0.476
same,glycan array binding signal (z-score),[41],-0.328
same,glycan array binding signal (z-score),[42],-0.282
same,glycan array binding signal (z-score),[43],0.146
same,glycan array binding signal (z-score),[44],-0.093
same,glycan array binding signal (z-score),[45],-0.6
same,glycan array binding signal (z-score),[46],-0.546
same,glycan array binding signal (z-score),[47],-0.68
same,glycan array binding signal (z-score),[48],-0.166
same,glycan array binding signal (z-score),[49],-0.5
same,glycan array binding signal (z-score),[50],-0.506
same,glycan array binding signal (z-score),[51],-0.389
same,glycan array binding signal (z-score),[52],-0.734
same,glycan array binding signal (z-score),[53],-1.07
same,glycan array binding signal (z-score),[54],-0.333
same,glycan array binding signal (z-score),[55],-0.857
same,glycan array binding signal (z-score),[56],0.353
same,glycan array binding signal (z-score),[57],-0.209
same,glycan array binding signal (z-score),[58],-0.046
same,glycan array binding signal (z-score),[59],1.15
same,glycan array binding signal (z-score),[60],-0.149

# Laid out differently: results already given.
binder | measurement | setting | value
PX14343F-bfa-562-20-562 (Bacteroides fragilis) (protein) CDDFLDSFPQDTVTNENFWKSKEDADKVLVDIYASLLPKDAIFFDEAMSDNAYLVWDWWGGAQQVANGSYTTSGEIPTNRWNGSYEVIRKCWFLLEGIEKIEDISEQDKNKIIGETYFMLAYNYYVLTSYFGDVPLVTKTLAIPESKQLVRTPKAEVVDYAINKLKEAAVMLEGLSQEKGRVTADACRFLIARMYLYNGDYSNVLETVKLLEGKYQLYREGDTPYEDLFSGVAENSCEVILSVVCDKRVGEIYTSHGGNGIMLLKGITGEDPYRGVTPSGSLVDAYPMADGRLIHEAGSSYDPKKPYEGRDPRFYQSIVYPTGQIKYLDVETGTVKERLYDPEDPTTVPEHQYNYSQPSATGYMWNKYIDYSVYAMNSVWDCTNDIIVFRYADVLLMKAEALLQTKGESAKEEVCNLIDQLRDRCSCGRVHRENYNSKDELMELLKNERRIELANEGLRYMDLIRWKDAEKNTIVTGVGLTGQMYGAYMRKDGVGKDDKTVDVDNTPRRYIETRYFNASKGYLFPIPQKERDLNPNLTQNPNW | glycan array binding signal (z-score) | [52] | -0.734
same | glycan array binding signal (z-score) | [53] | -1.07
